We go through 42 sequences from publication PMC7819943, “Rice protein-binding microarrays: a tool to detect cis-acting elements near promoter regions in rice”.

The chains behind the UniProt entries cited, without tags or fusion partners.
UniProt Q0JBA9, entry or part of it: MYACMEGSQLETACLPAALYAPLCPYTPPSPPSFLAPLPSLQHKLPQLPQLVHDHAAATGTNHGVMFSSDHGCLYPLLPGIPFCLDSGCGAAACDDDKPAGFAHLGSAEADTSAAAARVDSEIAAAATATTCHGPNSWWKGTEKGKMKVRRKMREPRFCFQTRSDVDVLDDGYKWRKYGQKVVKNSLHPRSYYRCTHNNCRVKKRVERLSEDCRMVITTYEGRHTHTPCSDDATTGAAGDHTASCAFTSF

The list shows a part of the results.

For this assay, the target named is OsWRKY34 (Oryza sativa, UniProt Q0JBA9 1-250). Description: protein-binding microarray (RPBM); PBS, 2% BSA, 51.3 ng/ul salmon testes DNA, 50 uM zinc acetate, 200 nM TF, 25 C, 1 h; high values mean tight binding. The settings on record: protein: recombinant; tags: N-terminal polyhistidine and DsRed monomer fusion (pET32a); label: CyDye5-dUTP incorporated in the synthesized complementary strand; 3' TTTTT single-stranded linker to array surface; dsDNA, one strand shown. Put shortly: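 The binding signal for each feature is its fluorescence intensity in arbitrary units. An Axon 4000B scanner was used to read a custom Agilent array that had been made double-stranded with Cy5-dUTP primer extension, blocked with 2% BSA, incubated at 25 °C for 1 h with 200 nM protein in PBS, 2% BSA, salmon testes DNA and 50 µM zinc acetate, and washed. The protein was an N-terminal polyhistidine–DsRed transcription factor fusion from E. coli BL21-CodonPlus, purified on Ni–NTA.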
For “AAGCTGGTTTGGCTAATTGTGTTGTGTAACTATAAATCTTCGGAGTCACCTAGTGCAG”, the binding signal is 8280 fluorescence intensity (a.u.).
The result for “TCTTTGGATTTGAAACTTGGCGGTGGTGGATTGAGGCGGTCGGAGTCACCTAGTGCAG” reads 8160 fluorescence intensity (a.u.); that for “GACCCACCCAACCCAGCTGATGATTTGCTCCGGCCGCCTTCGGAGTCACCTAGTGCAG”, 8680 fluorescence intensity (a.u.); that for “CGCCTTGTCTGTCCCTACTATATCTACCGTCTCGCCTATTCGGAGTCACCTAGTGCAG”, 9850 fluorescence intensity (a.u.).
Regarding “TTCTCCACTTTTTCAACCTGACTTCGCCGCCGCAAGTACTCGGAGTCACCTAGTGCAG”, the binding signal is 8230 fluorescence intensity (a.u.).
Take “GCGCCGCCGCCGCCGCCACCATCGCCCCGCTGACCGCCTCCGGAGTCACCTAGTGCAG”: the binding signal is 10800 fluorescence intensity (a.u.).
As for “ACACGCCGACACCCATCTCTTCGTCTTCCTCGCCTAAAACCGGAGTCACCTAGTGCAG”, the figure is 10100 fluorescence intensity (a.u.).
The result for “CGTTGTCCTTCGGATCATCTTGGCATATCTCTCTGCAGCACGGAGTCACCTAGTGCAG” reads 8990 fluorescence intensity (a.u.).
On to “TGGGATAGAGGGAGTATGTTTTTTCTATTTCTCGGTTTTCCGGAGTCACCTAGTGCAG”, for which the binding signal was 8120 fluorescence intensity (a.u.).
For “TTTTCTGTTCATGCGTATCTACATGTTTGTACAGCCAAACCGGAGTCACCTAGTGCAG”, the binding signal is 8070 fluorescence intensity (a.u.).
Regarding “ACTTCGTGGTCGGGGAGCGGATCGGGGAAGGGTCGTTCGGCGGAGTCACCTAGTGCAG”, the binding signal was 8460 fluorescence intensity (a.u.).
The result for “ACTCCACCGTACCAACCGCGGCGCGGCCGATCGATCGACGCGGAGTCACCTAGTGCAG” reads 8170 fluorescence intensity (a.u.).
Regarding “ATGCACCACTGTTCCTGTCCTGGCTTTGCACAACATCCATCGGAGTCACCTAGTGCAG”, the binding signal is 13300 fluorescence intensity (a.u.).
For “GATTTCCTTTCCCGCCACACTCTCGCCTCGCCGCAAAACTCGGAGTCACCTAGTGCAG”, the binding signal is 14500 fluorescence intensity (a.u.).
Take “CTCCTCATCTCGGCAAAACCACCACCGCATTGCCGGTATACGGAGTCACCTAGTGCAG”: the binding signal is 10400 fluorescence intensity (a.u.).
The result for “CCTCTACTCGACTCGACTCGACTCGCTAGTCGCTACCACCCGGAGTCACCTAGTGCAG” reads 9230 fluorescence intensity (a.u.); that for “GTCCACTCACAAATCGATCTCTCTCCTGCCATCTTCAGATCGGAGTCACCTAGTGCAG”, 11000 fluorescence intensity (a.u.); that for “AATCTATGTACATTCGTTATTTTAGAAGAAGCCGTATAATCGGAGTCACCTAGTGCAG”, 9000 fluorescence intensity (a.u.).
“TTACACTACTTCCGTTTTTCATTTTCATTATTTTCGAGTTCGGAGTCACCTAGTGCAG”: the binding signal is 11900 fluorescence intensity (a.u.).
As for “AACTACGTACAATATACCAGCCATTCGAGCAATGTTCATACGGAGTCACCTAGTGCAG”, the figure is 8560 fluorescence intensity (a.u.); as for “ACTCTTTTGTTTTTATGTCGTGCAAGTGTACCCTTCGGTACGGAGTCACCTAGTGCAG”, 9860 fluorescence intensity (a.u.); as for “ATATCCGTGGTTGTTTTGGTTGTTGCGCCTAAAAATCCTGCGGAGTCACCTAGTGCAG”, 8750 fluorescence intensity (a.u.).
Consider “ATTTCAGCTCTGCTTCACCGCAACAACTCCCGGTAAATTCCGGAGTCACCTAGTGCAG”, for which the binding signal is 8350 fluorescence intensity (a.u.).
As for “TTTTTATTTTTCGCGTTTTTAAGATAATGTCTTAACCAATCGGAGTCACCTAGTGCAG”, the figure is 8740 fluorescence intensity (a.u.); as for “GTCAATCATGGGATATTACTGTACTACCTCCGTCTCAGAACGGAGTCACCTAGTGCAG”, 8100 fluorescence intensity (a.u.).
With “ACATCTCCGTACCGCCACTCGCCAAGTCGCCGCCGCTCTACGGAGTCACCTAGTGCAG”, the binding signal is 11700 fluorescence intensity (a.u.).
The result for “TCGGACCACCAGACGCCTCCGCTGTCGCAGCACTGATCTGCGGAGTCACCTAGTGCAG” reads 9030 fluorescence intensity (a.u.).
On to “AGACCGGCGCTCCGTCTCTCGTACCACCGTACCACCCTAACGGAGTCACCTAGTGCAG”, for which the binding signal is 8470 fluorescence intensity (a.u.).
The result for “ATTTGCTCTCGTCTGCCTCTCCGACCACGACCAGAGCTCGCGGAGTCACCTAGTGCAG” reads 9090 fluorescence intensity (a.u.); that for “CACATATCCATCTTTCTTAATTATCTTTCTGTGTACTTGCCGGAGTCACCTAGTGCAG”, 9340 fluorescence intensity (a.u.).
As for “GTTTCCTAACCATTGGATCCCTCGATCTAACGTCTCACATCGGAGTCACCTAGTGCAG”, the binding signal is 8750 fluorescence intensity (a.u.).
As for “TATTTTTTGGACTGGTTTCATATGTTTGTGGTACAATTTACGGAGTCACCTAGTGCAG”, the figure is 10100 fluorescence intensity (a.u.); as for “CGTATTTTAATATATGACGCCCGCCGTTGACTTTTTGTCTCGGAGTCACCTAGTGCAG”, 27800 fluorescence intensity (a.u.).
As for “TATCTCGCTCTTGTCCTCTTCGCTTCGTTTTGTATATAAACGGAGTCACCTAGTGCAG”, the figure is 11000 fluorescence intensity (a.u.).
For the sequence “TTCTATTCCTCTCTCTCTCTCTCTCTCTCTCTCTCTCTCTCGGAGTCACCTAGTGCAG”, the binding signal is 9550 fluorescence intensity (a.u.).
As for “TTTTTAATAGATAACGTCGTTGACTTTTTCTCACATGTTTCGGAGTCACCTAGTGCAG”, the figure is 25600 fluorescence intensity (a.u.); as for “GTTCTGCCGAGATCATCTTGCTGCTTGTGTTCCATTTGGACGGAGTCACCTAGTGCAG”, 8290 fluorescence intensity (a.u.).
The result for “CTCATCTCCCATCTTCCCCACGCCACCAAACCCCGAGAACCGGAGTCACCTAGTGCAG” reads 8620 fluorescence intensity (a.u.); that for “TCCCCTTCCTCATCTCCGCCTCGCCTCCACCGGCCGTGATCGGAGTCACCTAGTGCAG”, 8420 fluorescence intensity (a.u.); that for “TTTGTGTTCATGGCCCTCTCCTCTTTCCTGGCCCATCTGACGGAGTCACCTAGTGCAG”, 9350 fluorescence intensity (a.u.).
With “GACGGCGCTAACCACCCACCAGCCCACGTCCCAGTCTCTCCGGAGTCACCTAGTGCAG”, the binding signal was 9980 fluorescence intensity (a.u.).
As for “CGCGGGGCCCACCCACCACCTCCTCTCCGCGACGTTTCGACGGAGTCACCTAGTGCAG”, the binding signal is 8270 fluorescence intensity (a.u.).
